Hit rate of the full screen: of about 360,000 compounds, about 7,500 (2.1%) were called active. Inconclusive results, whose numbers are uncertain, are shown with a selection of clear calls. Calls come from the whole dose curve; as a rule, active = well fitted inhibition curve with a large enough effect; inconclusive = small, poorly fitted or top-dose-only effect, or effect the other way; inactive = flat fitted curve, though single readings scatter. A potency beside an inconclusive call is a rough fit, not a confirmed value.
Assay: Nrf2 qHTS screen for inhibitors; note: nearly all actives have a fitted effect of over 60% in size
Details: A549 ARE-Fluc reporter, luciferase luminescence, 18-24 h; series mostly up to 46 µM
Summary of the method: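 Quantitative HTS in A549 cells stably bearing an antioxidant response element-firefly luciferase construct. Inhibition of Nrf2-driven transcription was scored by luminescence after 18-24 h of compound exposure at 37 °C.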
Potency is the fitted concentration of half-maximal effect.

SMILES | Potency
COc1ccc(S(=O)(=O)n2nc(-c3ccc(Cl)cc3)cc2N)cc1 | inconclusive: 29.1 µM [falling, single point]
O=C(Nc1ccc2nn(-c3ccccc3)nc2c1)c1ccc(Br)o1 | inconclusive: 25.9 µM [falling, partial curve, poor fit]
C=Cn1cc[n+](CC(=O)c2ccc(Cl)c(Cl)c2)c1 | inactive
COc1cc(C(=O)Nc2cccc(-n3cnnn3)c2)cc(Cl)c1OC | inconclusive: 29.1 µM [falling, single point]
CCOc1ccc(OCC(=O)Nc2nccs2)cc1 | inconclusive: 0.326 µM [activator, full curve]
CS(=O)(=O)c1ccc(C(=O)OCC(=O)NCc2cccs2)cc1[N+](=O)[O-] | inconclusive: 29.1 µM [falling, single point]
C[C@H](NC(=O)c1ccccc1Cl)C(=O)OC(C(=O)Nc1cc(C(F)(F)F)ccc1Cl)c1ccccc1 (stereo partly drawn) | inconclusive: 23.1 µM [falling, partial curve, poor fit]
Cc1ccc(CNC(=O)CSc2c3c(nc4cc(Cl)ccc24)CCCC3)cc1 | inactive
C=C(C)COc1ccc(-c2nc(N)nc(C)c2Oc2ccccc2OC)c(O)c1 | inconclusive: 29.1 µM [falling, single point]
Cc1ccc(CC(=O)Nc2nncs2)cc1 | inconclusive: 20.6 µM [falling, partial curve, poor fit]
CCn1c(C(=O)N2CCC(C(=O)NCCCSC3CCCCC3)CC2)cc2sccc21 | inactive
O=c1oc2cc(O)ccc2cc1-c1nnc(Nc2ccccc2F)s1 | inconclusive: 7.31 µM [activator, partial curve]
CC1Cc2ccccc2N1C(=O)CSc1nnc2n1C(C)(C)Cc1ccccc1-2 (stereo not drawn) | inconclusive: 14.6 µM [falling, partial curve, poor fit]
CN1C(=O)c2ccccc2Sc2ccc(NC(=O)NCc3cccc(Cl)c3)cc21 | inconclusive: 18.4 µM [falling, partial curve, poor fit]
Cc1ccc2c(c1)C(=O)C(=O)N2CCCOc1ccccc1 | inactive
COc1ccccc1OCCn1c(=O)n(C)c2ccccc21 | inconclusive: 8.2 µM [activator, partial curve, poor fit]
COc1cc(/C=C/C(=O)N2CCN(C(=O)/C=C/c3cc(OC)c(OC)c(OC)c3)CC2)cc(OC)c1OC | inconclusive: 1.84 µM [falling, partial curve, poor fit]
CCC(=O)n1nc(-c2ccc(OC)cc2)nc1SC | inconclusive: 14.6 µM [activator, partial curve, poor fit]
COc1ccc(-n2c(-c3ccc(C)cc3)cc3c2CC(C)(C)CC3=O)c(OC)c1 | inconclusive: 18.4 µM [falling, single point]
Cc1nc(C)c(-c2ccc(SCc3ccc([N+](=O)[O-])cc3)nn2)s1 | inconclusive: 29.1 µM [falling, single point]
COc1cccc(C2CC(c3cccs3)=NN2S(C)(=O)=O)c1 (stereo not drawn) | inconclusive: 14.6 µM [activator, partial curve, poor fit]
Cc1ccc(/C=c2/sc3n(c2=O)CCCN=3)o1 | inconclusive: 13 µM [activator, single point]
CC(=O)Nc1ccc(NC(=S)NC(=O)/C=C/c2ccc(Cl)cc2)cc1 | inconclusive: 3.66 µM [falling, full curve]

SMILES | Potency
COc1ccc(CCNC(=O)/C=C/c2ccco2)cc1OC | inactive
Cc1ccc(S(=O)(=O)Nc2ccc(-c3csc(-c4ccccc4)n3)cc2)cc1 | inactive
CCn1cc(C(=O)NCCc2ccc(OC)c(OC)c2)c(=O)c2cc(S(=O)(=O)N3CCC(C)CC3)ccc21 | inconclusive: 2.91 µM [activator, partial curve]
CCNc1ccc(Br)cc(C(=O)/C=C/c2ccc3c(c2)OCO3)c1=O | inactive
Cc1ccc2nc(-c3cc(-c4ccccc4)no3)cn2c1 | inconclusive: 0.231 µM [activator, full curve, poor fit]
Cc1ccc(NC(=O)Cn2c(=O)oc3ccccc32)cc1C | inactive
COc1ccc(-c2nc(CS(=O)CC(=O)NC3CCCCC3)c(C)o2)cc1 (stereo not drawn) | inactive
CCOc1ccc(C(=O)CCC(=O)Nc2ncccc2O)cc1 | inconclusive: 23.1 µM [activator, single point]
COc1ccccc1/C=C/C(C)=O | inactive
COc1ccc(CN(C)C(=O)c2oc3ccccc3c2CSC)cc1F | inactive
Cc1ccccc1NS(=O)(=O)c1ccc(C(=O)N2CC(C)OC(C)C2)cc1 (stereo not drawn) | inconclusive: 4.61 µM [falling, partial curve, poor fit]
O=C1c2ccccc2NC(c2cccc(O)c2)N1Cc1ccco1 (stereo not drawn) | inconclusive: 29.1 µM [falling, partial curve, poor fit]
O=C(N/N=C/c1ccc[nH]1)c1cc(-c2ccc(Cl)cc2)nc2ccccc12 | inconclusive: 29.1 µM [falling, single point]
CCn1c(SCC(=O)N/N=C/c2ccc(OC)c(OC)c2)nc2ccccc21 | inactive
COc1cc(CCN2C(=O)c3cccc4cccc(c34)C2=O)c(S(=O)(=O)NCCCO)cc1OC | inactive
Cn1nc(C(=O)NCc2ccc(F)cc2)c2c1-c1ccccc1S(=O)(=O)C2 | active: 10.3 µM
Cc1cc(C)c[n+](C(C)C(=O)c2ccc(-c3ccccc3)cc2)c1 (stereo not drawn) | active: 14.6 µM
O=C(/C=C/c1ccc(Cl)cc1Cl)N1CCc2ccccc21 | inconclusive: 2.06 µM [activator, full curve]
COC(=O)c1ccc(NC(=O)CN2C(=O)c3ccccc3S2(=O)=O)cc1 | inactive
Clc1ccc(-c2nnc(-c3ccccc3Cl)o2)cc1 | inconclusive: 2.06 µM [activator, partial curve, poor fit]
Cc1ccc(C(=O)/C=C/c2ccc(-c3ccc(C)cc3)o2)cc1 | inactive
O=C(C1CC(=O)N(c2ccc3c(c2)OCCO3)C1)N1CCN(S(=O)(=O)c2ccccc2F)CC1 (stereo not drawn) | inactive
Cc1c(Cl)cccc1-n1ncc(C(=O)NCc2cccs2)c1C1CCN(C(=O)OC(C)(C)C)CC1 | inconclusive: 23.1 µM [falling, single point]

As entered above:
Value of COc1ccc(CCNC(=O)/C=C/c2ccco2)cc1OC under Potency: inactive
Value of CCOc1ccc(C(=O)CCC(=O)Nc2ncccc2O)cc1 under Potency: inconclusive: 23.1 µM [activator, single point]
Value of COc1cc(CCN2C(=O)c3cccc4cccc(c34)C2=O)c(S(=O)(=O)NCCCO)cc1OC under Potency: inactive
Value of Cc1ccccc1NS(=O)(=O)c1ccc(C(=O)N2CC(C)OC(C)C2)cc1 (stereo not drawn) under Potency: inconclusive: 4.61 µM [falling, partial curve, poor fit]
Value of Cn1nc(C(=O)NCc2ccc(F)cc2)c2c1-c1ccccc1S(=O)(=O)C2 under Potency: active: 10.3 µM

Next structures follow:

SMILES | Potency
CCOC(=O)c1sc(NC(=S)NC(=O)c2cccc(OC)c2)nc1C | inconclusive: 29.1 µM [falling, single point]
O=C(NCCc1c[nH]c2ccc(Cl)cc12)c1ccc([N+](=O)[O-])cc1 | inconclusive: 0.731 µM [falling, full curve, poor fit]
COC(=O)c1c(NC(=O)c2cc(OC)c(OC)c(OC)c2Br)sc2c1CCC(C)C2 (stereo not drawn) | inconclusive: 2.91 µM [activator, full curve]
Cc1cc(Cl)cc2c(N=Nc3ccccc3C(=O)O)c(O)[nH]c12 | inconclusive: 23.1 µM [activator, partial curve, poor fit]
Cc1cc(=O)n(Cc2cccc(F)c2)c2c1c(C)nn2-c1cccc(F)c1 | inconclusive: 29.1 µM [activator, single point]
CCc1cccc(CC)c1-n1nnc2c(sc3nc(C)cc(C)c32)c1=O | inconclusive: 25.9 µM [falling, partial curve, poor fit]
O=[N+]([O-])c1ccc(COc2ccc(-c3[nH]ncc3-c3ccc(Cl)cc3)c(O)c2)cc1 | inconclusive: 23.1 µM [falling, partial curve, poor fit]
Cc1ccc(Nc2nc(=O)c3cccnc3s2)c(Br)c1 | inconclusive: 29.1 µM [activator, single point]
CC(CCC(=O)O)(c1ccc(O)cc1)c1ccc(O)cc1 | inconclusive: 0.146 µM [activator, full curve, poor fit]
CCc1ccc(-c2cc(C)no2)cc1S(=O)(=O)NCc1ccccc1OC | inconclusive: 29.1 µM [falling, single point]
CC(=O)Nc1cccc(/C(C)=N/NC(=O)c2ccc(Cl)cc2Cl)c1 | inconclusive: 20.6 µM [falling, single point]
O=C(CSc1nc(-c2ccc(F)cc2)[nH]c1-c1ccccc1)Nc1ccccc1 | active: 20.6 µM
COc1ccc(CCNC(=O)c2nnn(CC(=O)Nc3ccc(C)cc3C)c2N)cc1OC | inconclusive: 18.4 µM [falling, partial curve, poor fit]
CCCC#Cc1ccc2c(c1)COc1c3ccccc3nn1-2 | inconclusive: 5.8 µM [activator, full curve]
CCc1ccc(-c2nn(CC(=O)Nc3ccccc3C)c3c2cnc2ccc(C)cc23)cc1 | inactive
Cc1cc(C)c2c(N)c(C(=O)c3ccccc3Cl)sc2n1 | inconclusive: 8.2 µM [falling, partial curve, poor fit]
O=C(N/N=C/c1sc2ccccc2c1O)c1cccc2ccccc12 | inconclusive: 18.4 µM [falling, single point]
CCC1CCc2sc(C(=O)NCC(c3ccc(OC)cc3)N3CCCC3)cc2C1 (stereo not drawn) | inactive
N#C/C(=C/c1cn(Cc2ccccc2Cl)c2ccccc12)C(=O)Nc1cccc(Cl)c1 | inconclusive: 23.1 µM [falling, partial curve]
CC(C)(C)c1ccc(C(=O)NCC2CCCN2S(=O)(=O)c2ccccc2)cc1 (stereo not drawn) | active: 20.6 µM
Cc1cccc2sc(N(CCCN(C)C)C(=O)CN3C(=O)c4ccccc4C3=O)nc12 | inconclusive: 29.1 µM [falling, single point]
Cc1cccc2cc(CN(CCN3CCCC3)C(=O)NC3CCCCC3)c(=O)[nH]c12 | inconclusive: 14.6 µM [activator, partial curve, poor fit]

Source: PubChem BioAssay AID504444 (National Center for Advancing Translational Sciences (NCATS), 2011)
